The nature of data set [1]: Probe fluorescence ratio at zero FFAu (Ro). The following applies: R (550 nm/457 nm) for zero FFAu.
A short description of data set [2]: Probe calibration by titration with FFA / FFA-BSA complexes: LNA. The class given is binding. The following applies: for Rm LNA: R value (550 nm/457 nm) at saturation with LNA; for Q LNA: ratio of intensity at 457 nm with no FFAu bound to that at saturation. The protocol: (§1) Calibration: Each probe is calibrated to the extent that the constants in Equation 2 are well determined for all FFAu to be included in profile calculations. Equation 2, which is the form of equation 1 for a single FFAu, relates the FFAu concentration to the equilibrium dissociation constant (Kd), fluorometric constants (Q and Rm) and the measured R values.
(§2) The calibration parameters are determined essentially as described in U.S. Pat. No. 7,601,510 which is incorporated herein by reference and (Huber et al Biochemistry (2006) 45:14263-14274) where the calibrated ADIFAB2 probe was used to generate FFA-BSA complexes with accurate and well buffered FFAu concentrations. To calibrate probes with substantially higher affinities than used in U.S. Pat. No. 7,601,510 and (Huber et al Biochemistry (2006) 45:14263-14274) a boot strap method is used in which a probe having higher affinities is calibrated with ADTFAB2. Such a probe is then used to generate FFA-BSA complexes with FFAu concentrations from 0.1 to 10 nM and these complexes are then used to calibrate other high affinity probes.
(§3) Probe calibration involves titrating the probes with either (i) un-buffered FFA or (ii) BSA-buffered FFA stocks. The un-buffered titrations involve measuring the R-value of a 1 μM probe solution as it is slowly titrated to saturation with small aliquots of a 100 to 250 μM FFA stock (Richieri G V et al. (1992) J Biol Chem 267: 23495-23501, Richieri G V et al. (1999) Mol Cell Biochem 192: 87-94). In this case, the total FFA concentration for each point in the titration is known and a nonlinear fit to the titration data yields the full set of fluorometric constants. In an un-buffered FFA titration, probe concentration is a key variable because the probe binds FFA, directly affecting the FFAu value.
(§4) Alternatively, in a BSA-buffered FFA calibration, the probe solution is titrated with a series of FFA-BSA complexes (600 μM BSA with [FFAu] ranging from 0.1 nM to 4 μM). The titration samples are FFA-BSA complex diluted 50-fold in Measuring Buffer. Probe is added to a concentration of 0.5 μM and the R-value is measured. Because BSA buffers FFAu, its concentration remains constant (i.e. known), even after the addition of probe. […] At least two calibrations with each of the up to 15 different FFA are performed for each probe.
(§5) All of the probes reveal substantial differences for different FFAu and in many cases these differences are related to the aqueous solubility of the FFA. For example, of the FFA in Table 3, SA is the least soluble and MA the most soluble. As discussed in (Richieri G V et al (2000) Biochemistry 39: 7197-7204) the tendency of natural proteins and FABPs, in particular, is for binding constants to be largest (smallest Kd) for the least soluble FFA and conversely for the most soluble FA. In two cases, ADIFAB2 and L11, Kd for SA is substantially the smallest and MA the largest and that pattern is more or less maintained for most of the other probes in Table3 with the exception of L83. In that case MA has the largest affinity while SA's more than 10 fold smaller. To some extent the other calibrations constants follow that behavior; Q is largest for the smallest Kd and Rmax is often largest, so that the probe response tends to be larger for FFA with the larger affinities. The ability to generate mutations that overcome the “natural thermodynamics” allows for probes that have a wide range of specificities and sensitivities than enable the determination of FFAu profiles.

Data set [3] in a line: Probe calibration by titration with FFA / FFA-BSA complexes: LA. The class given is binding. The following applies: for Rm LA: R value (550 nm/457 nm) at saturation with LA; for Q LA: ratio of intensity at 457 nm with no FFAu bound to that at saturation. The protocol:
as §1, §2, §3, §4, §5

A short description of data set [4]: Probe calibration by titration with FFA / FFA-BSA complexes: AA. The settings on record: for Rm AA: R value (550 nm/457 nm) at saturation with AA; for Q AA: ratio of intensity at 457 nm with no FFAu bound to that at saturation. It counts as binding. The protocol: as §1, §2, §3, §4, §5
A short description of data set [5]: Probe calibration by titration with FFA / FFA-BSA complexes: POA. It counts as binding. The following applies: for Rm POA: R value (550 nm/457 nm) at saturation with POA; for Q POA: ratio of intensity at 457 nm with no FFAu bound to that at saturation. The protocol:
as §1, §2, §3, §4, §5

Data set [6] can be described thus: Probe calibration by titration with FFA / FFA-BSA complexes: OA. It counts as binding. The settings on record: for Rm OA: R value (550 nm/457 nm) at saturation with OA; for Q OA: ratio of intensity at 457 nm with no FFAu bound to that at saturation. The protocol: as §1, §2, §3, §4, §5
Data set [7] in a line: Probe calibration by titration with FFA / FFA-BSA complexes: PA. It counts as binding. The following applies: for Rm PA: R value (550 nm/457 nm) at saturation with PA; for Q PA: ratio of intensity at 457 nm with no FFAu bound to that at saturation. The protocol: as §1, §2, §3, §4, §5
A short description of data set [8]: Probe calibration by titration with FFA / FFA-BSA complexes: DHA. The class given is binding. The settings on record: for Rm DHA: R value (550 nm/457 nm) at saturation with DHA; for Q DHA: ratio of intensity at 457 nm with no FFAu bound to that at saturation. The protocol:
as §1, §2, §3, §4, §5

Data set [9] in a line: Probe calibration by titration with FFA / FFA-BSA complexes: MA. The class given is binding. The following applies: for Rm MA: R value (550 nm/457 nm) at saturation with MA; for Q MA: ratio of intensity at 457 nm with no FFAu bound to that at saturation. The protocol: as §1, §2, §3, §4, §5

B1: ADIFAB2: acrylodan-labeled (lysine 27) mutant FABP probe: L72A (protein, UniProt P02693 2-132, looked up, variant L72A)
Fatty acid-binding protein, …: AFDGTWKVDRNENYEKFMEKMGINVVKRKLGAHDNLKLTITQEGNKFTVKESSNFRNIDVVFELGVDFAYSAADGTELTGTWTMEGNKLVGKFKRVDNGKELIAVREISGNELIQTYTYEGVEAKRIFKKE
modifications: acrylodan label on K27
notes: acrylodan-labeled (lysine 27) mutant FABP probe: L72A
As to B1, the Ro in data set [1] is reported as 0.087. In data set [2], the “Rm LNA” value was 0.80 and the “Q LNA” value is given as 5.0. Also, in [3], the “Rm LA” value is given as 0.73 and the “Q LA” value is 4.0. Moreover, in [4], the “Rm AA” value stood at 0.91 and the “Q AA” value was found to be 5.0. Further, in data set [5], the “Rm POA” value is 0.79 and the “Q POA” value was determined as 4.5. In addition, in data set [6], the “Rm OA” value was found to be 0.76 and the “Q OA” value is 5.0. Further, in data set [7], the “Rm PA” value was 1.16 and the “Q PA” value is listed as 6.6. In [8], the “Rm DHA” value was found to be 0.64 and the “Q DHA” value is given as 3.3. In addition, in data set [9], the “Rm MA” value was found to be 0.63 and the “Q MA” value is listed as 3.7.

B2: L2P22 G6: acrylodan-labeled mutant FABP probe: M18I, G31Y, A73G (protein, UniProt P02693 2-132, looked up, variant M18I G31Y A73G)
Fatty acid-binding protein, …: AFDGTWKVDRNENYEKFIEKMGINVVKRKLYAHDNLKLTITQEGNKFTVKESSNFRNIDVVFELGVDFAYSLGDGTELTGTWTMEGNKLVGKFKRVDNGKELIAVREISGNELIQTYTYEGVEAKRIFKKE
modifications: acrylodan label
notes: acrylodan-labeled mutant FABP probe: M18I, G31Y, A73G
For B2, the Ro in [1] is reported as 0.200. Also, in data set [2], the “Rm LNA” value worked out at 1.21 and the “Q LNA” value was determined as 3.8. Further, in [3], the “Rm LA” value was 0.99 and the “Q LA” value is listed as 2.6. For the same molecule, in data set [4], the “Rm AA” value stood at 0.83 and the “Q AA” value stood at 2.8. Besides, in [5], the “Rm POA” value is recorded as 1.15 and the “Q POA” value amounted to 2.7. Also, in [6], the “Rm OA” value came to 0.97 and the “Q OA” value is 2.4. In data set [7], the “Rm PA” value was 1.21 and the “Q PA” value came out at 4.0. Also, in data set [8], the “Rm DHA” value amounted to 1.13 and the “Q DHA” value came out at 3.4. Besides, in data set [9], the “Rm MA” value is recorded as 1.3 and the “Q MA” value is 3.3.

B3: L11P7 B3 V26C: acrylodan-labeled mutant FABP probe: M21F, V26C, L72A, L78V, L102V (protein, UniProt P02693 2-132, looked up, variant M21F V26C L72A L78V L102V)
Fatty acid-binding protein, …: AFDGTWKVDRNENYEKFMEKFGINVCKRKLGAHDNLKLTITQEGNKFTVKESSNFRNIDVVFELGVDFAYSAADGTEVTGTWTMEGNKLVGKFKRVDNGKEVIAVREISGNELIQTYTYEGVEAKRIFKKE
modifications: acrylodan label
notes: acrylodan-labeled mutant FABP probe: M21F, V26C, L72A, L78V, L102V
Consider B3, for which the Ro in data set [1] was 0.191. Moreover, in data set [2], the “Rm LNA” value is on record as 5.9 and the “Q LNA” value stood at 21.8. For the same molecule, in [3], the “Rm LA” value is 6.2 and the “Q LA” value came out at 23.1. For the same molecule, in [4], the “Rm AA” value came out at 8.3 and the “Q AA” value was found to be 27.0. For the same molecule, in data set [5], the “Rm POA” value is recorded as 4.5 and the “Q POA” value was 17.5. Besides, in [6], the “Rm OA” value stood at 7.2 and the “Q OA” value is reported as 25.7. In addition, in [7], the “Rm PA” value worked out at 5.6 and the “Q PA” value stood at 21.4. Further, in data set [8], the “Rm DHA” value turned out to be 8.7 and the “Q DHA” value was 27.4. For the same molecule, in [9], the “Rm MA” value is recorded as 2.6 and the “Q MA” value stood at 10.5.

B4: L10P7 A4 L30C: acrylodan-labeled mutant FABP probe: Y14L, M18L, K27A, L30C, G31Y, A73L, Y117A (protein, UniProt P02693 2-132, looked up, variant Y14L M18L K27A L30C G31Y A73L Y117A)
Fatty acid-binding protein, …: AFDGTWKVDRNENLEKFLEKMGINVVARKCYAHDNLKLTITQEGNKFTVKESSNFRNIDVVFELGVDFAYSLLDGTELTGTWTMEGNKLVGKFKRVDNGKELIAVREISGNELIQTATYEGVEAKRIFKKE
modifications: acrylodan label
notes: acrylodan-labeled mutant FABP probe: Y14L, M18L, K27A, L30C, G31Y, A73L, Y117A
With B4, the Ro in data set [1] worked out at 0.260. For the same molecule, in data set [2], the “Rm LNA” value stood at 1.4 and the “Q LNA” value came out at 6.7. Besides, in [3], the “Rm LA” value is recorded as 1.8 and the “Q LA” value came to 8.2. In [4], the “Rm AA” value is given as 2.5 and the “Q AA” value is on record as 11.2. Moreover, in data set [5], the “Rm POA” value came to 0.62 and the “Q POA” value came to 2.9. For the same molecule, in data set [6], the “Rm OA” value came to 1.2 and the “Q OA” value is recorded as 4.9. Also, in [7], the “Rm PA” value stood at 0.29 and the “Q PA” value came out at 1.5. Further, in data set [8], the “Rm DHA” value was 3.2 and the “Q DHA” value came to 15.8. In addition, in data set [9], the “Rm MA” value is reported as 0.2 and the “Q MA” value is 1.0.

B5: L1P8 H2: acrylodan-labeled mutant FABP probe: Y14M, L38M, L72W (protein, UniProt P02693 2-132, looked up, variant Y14M L38M L72W)
Fatty acid-binding protein, …: AFDGTWKVDRNENMEKFMEKMGINVVKRKLGAHDNLKMTITQEGNKFTVKESSNFRNIDVVFELGVDFAYSWADGTELTGTWTMEGNKLVGKFKRVDNGKELIAVREISGNELIQTYTYEGVEAKRIFKKE
modifications: acrylodan label
notes: acrylodan-labeled mutant FABP probe: Y14M, L38M, L72W
Consider B5, for which the Ro in data set [1] is 0.620. For the same molecule, in data set [2], the “Rm LNA” value stood at 0.06 and the “Q LNA” value came out at 0.27. Further, in data set [3], the “Rm LA” value was 0.08 and the “Q LA” value stood at 0.25. In data set [4], the “Rm AA” value is given as 0.08 and the “Q AA” value amounted to 0.24. Besides, in [5], the “Rm POA” value is on record as 0.26 and the “Q POA” value was 0.47. Moreover, in data set [6], the “Rm OA” value was 0.07 and the “Q OA” value is reported as 0.20. In data set [7], the “Rm PA” value amounted to 0.17 and the “Q PA” value came out at 0.44. Further, in [8], the “Rm DHA” value was found to be 0.18 and the “Q DHA” value is recorded as 0.28. Further, in data set [9], the “Rm MA” value was determined as 0.60 and the “Q MA” value was 0.76.

For the origin of these results see US10705101B2, “Determination of the unbound free fatty acid profiles in biological and industrial specimens” (priority 2013, dated 2020).
